Data as given in PubChem BioAssay AID1259405 (NCATS, 2018).

Aim: 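Knock-downs that lift recombinant protein yield in hamster ovary cells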 (primary screen)
Cells: Chinese hamster CHO-K1 ovary cells with stable secreted eGFP expression
Reagents: single siRNA against mouse genes, 0.8 pmol siRNA per well (2 µl of 400 nM stock)
Duration: 3 days
Detection: 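Percent of the per-plate non-targeting control median for intracellular GFP per well by laser scanning cytometry and for cell viability by ATP luminescence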
Direction: GFP, % of control: higher = more GFP per well, higher productivity; viability (ATP), % of control: higher = more viable cells (more ATP)
Rule for the call: 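a knock-down is called active if GFP reaches 120% or more of non-targeting control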
Shown is an unselected part of about 50,000 reagents tested. About 4,000 of all reagents (8%) count as active. 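Mouse siRNA library applied to hamster cells; one well for each siRNA.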 Reagents against one gene are numbered here.

gene	siRNA no.	GFP, % of control	viability (ATP), % of control	activity call
Esr1 (GeneID 13982)	1	76.3	78.3	inactive
Esr1 (GeneID 13982)	2	73.8	73.8	inactive
Esr1 (GeneID 13982)	3	10.3	12.3	inactive
Asb2 (GeneID 65256)	1	48	51.5	inactive
Asb2 (GeneID 65256)	2	67.7	74.6	inactive
Asb2 (GeneID 65256)	3	106	113	inactive
Med28 (GeneID 66999)	1	62.9	89.8	inactive
Med28 (GeneID 66999)	2	53.6	70.8	inactive
Med28 (GeneID 66999)	3	182	109	active
Or1af1 (GeneID 236509)	1	51.7	47	inactive
Or1af1 (GeneID 236509)	2	60.8	69.6	inactive
Or1af1 (GeneID 236509)	3	53.9	39.2	inactive
Mff (GeneID 75734)	1	53.7	48.8	inactive
Mff (GeneID 75734)	2	111	101	inactive
Mff (GeneID 75734)	3	141	144	active
Azgp1 (GeneID 12007)	1	94.6	103	inactive
Azgp1 (GeneID 12007)	2	63.9	67.6	inactive
Azgp1 (GeneID 12007)	3	69.3	79.7	inactive
Mterf1a (GeneID 545725)	1	109	87.9	inactive
Mterf1a (GeneID 545725)	2	77.6	79.7	inactive
Mterf1a (GeneID 545725)	3	75.8	61.5	inactive
Bid (GeneID 12122)	1	68.2	60.5	inactive
Bid (GeneID 12122)	2	90.8	101	inactive
Bid (GeneID 12122)	3	86.9	91	inactive
2310067E19Rik (GeneID 76455)	1	105	87.7	inactive
2310067E19Rik (GeneID 76455)	2	27.3	14.5	inactive
2310067E19Rik (GeneID 76455)	3	73.5	71.7	inactive
Cpne7 (GeneID 102278)	1	72.5	87	inactive
Cpne7 (GeneID 102278)	2	53.6	69.2	inactive
Cpne7 (GeneID 102278)	3	98.4	82.2	inactive
Il17rb (GeneID 50905)	1	74.5	70.7	inactive
Il17rb (GeneID 50905)	2	52.5	55	inactive
Syt7 (GeneID 54525)	1	142	151	active
Syt7 (GeneID 54525)	2	74	101	inactive
Tex12 (GeneID 66654)	1	68.1	66.4	inactive
Tex12 (GeneID 66654)	2	67.4	106	inactive
Tex12 (GeneID 66654)	3	113	98.8	inactive
Hbb-b2 (GeneID 15130)	1	131	117	active
Hbb-b2 (GeneID 15130)	2	110	83.4	inactive
Hbb-b2 (GeneID 15130)	3	77.6	62.7	inactive
Atp6v1g3 (GeneID 338375)	1	63.3	103	inactive
Atp6v1g3 (GeneID 338375)	2	54.6	93	inactive
Atp6v1g3 (GeneID 338375)	3	43.6	72	inactive
Cacnb4 (GeneID 12298)	1	86.7	80	inactive
Cacnb4 (GeneID 12298)	2	56	59	inactive
Cacnb4 (GeneID 12298)	3	59.3	70.1	inactive
Ccdc122 (GeneID 108811)	1	64.9	97.3	inactive
Ccdc122 (GeneID 108811)	2	84.9	83.2	inactive
Ccdc122 (GeneID 108811)	3	129	136	active
Trappc2b (GeneID 66050)	1	79.9	49.9	inactive
Trappc2b (GeneID 66050)	2	70.9	77.1	inactive
Trappc2b (GeneID 66050)	3	69.8	82.1	inactive
Pigv (GeneID 230801)	1	88.7	93.9	inactive
Pigv (GeneID 230801)	2	96.5	95.2	inactive
Pigv (GeneID 230801)	3	18.9	23.1	inactive
Srpk1 (GeneID 20815)	1	64.7	80.1	inactive
Armh4 (GeneID 67419)	1	71.7	54.4	inactive
Armh4 (GeneID 67419)	2	147	108	active
Armh4 (GeneID 67419)	3	111	131	inactive
Apoa5 (GeneID 66113)	1	89.5	103	inactive
Apoa5 (GeneID 66113)	2	181	72.2	active
Apoa5 (GeneID 66113)	3	56.3	57.3	inactive
Gramd4 (GeneID 223752)	1	97.4	86.9	inactive
Gramd4 (GeneID 223752)	2	55.8	79	inactive
Gramd4 (GeneID 223752)	3	140	114	active
Yrdc (GeneID 230734)	1	62.2	61.9	inactive
Yrdc (GeneID 230734)	2	49.3	64.1	inactive
Yrdc (GeneID 230734)	3	112	126	inactive
F830045P16Rik (GeneID 228592)	1	47.8	35.6	inactive
F830045P16Rik (GeneID 228592)	2	55.9	82.1	inactive
F830045P16Rik (GeneID 228592)	3	39.4	72.1	inactive
Pemt (GeneID 18618)	1	116	89.7	inactive
Pemt (GeneID 18618)	2	37.4	51.1	inactive
Pemt (GeneID 18618)	3	88.4	119	inactive
Ndrg1 (GeneID 17988)	1	108	84.3	inactive
Ndrg1 (GeneID 17988)	2	46.4	32.8	inactive
Ndrg1 (GeneID 17988)	3	56.5	76.4	inactive
Ndrg1 (GeneID 17988)	4	40.9	54.8	inactive
Ndrg1 (GeneID 17988)	5	80.7	71.6	inactive
Ndrg1 (GeneID 17988)	6	78.8	51.5	inactive
Sdhd (GeneID 66925)	1	85.3	68.7	inactive
Sdhd (GeneID 66925)	2	74.1	100	inactive
Sdhd (GeneID 66925)	3	86.4	102	inactive
Myo15a (GeneID 17910)	1	95.4	97.8	inactive
Myo15a (GeneID 17910)	2	74	115	inactive
Zfp418 (GeneID 232854)	1	116	87.9	inactive
Zfp418 (GeneID 232854)	2	60	77.4	inactive
Zfp418 (GeneID 232854)	3	110	97.8	inactive
Cbl (GeneID 12402)	1	86.3	85.5	inactive
Cbl (GeneID 12402)	2	105	94.8	inactive
Cbl (GeneID 12402)	3	113	119	inactive
4930470P17Rik (GeneID 67637)	1	96.8	80	inactive
4930470P17Rik (GeneID 67637)	2	58.6	70.5	inactive
4930470P17Rik (GeneID 67637)	3	83.1	93	inactive
Pramel12 (GeneID 242736)	1	112	86.9	inactive
Pramel12 (GeneID 242736)	2	113	83.7	inactive
Pramel12 (GeneID 242736)	3	81.9	84.2	inactive
Bbs5 (GeneID 72569)	1	90.4	70.6	inactive
Bbs5 (GeneID 72569)	2	54.7	70.4	inactive
Bbs5 (GeneID 72569)	3	35.8	50.3	inactive
Bin1 (GeneID 30948)	1	59.3	65.3	inactive
Bin1 (GeneID 30948)	2	39.4	26.6	inactive
Bin1 (GeneID 30948)	3	90.5	74.5	inactive
Cyth2 (GeneID 19158)	1	80.4	87.8	inactive
Cyth2 (GeneID 19158)	2	71.3	101	inactive
Cyth2 (GeneID 19158)	3	107	93.7	inactive
Tex15 (GeneID 104271)	1	102	89.1	inactive
Tex15 (GeneID 104271)	2	73	95.3	inactive
Tex15 (GeneID 104271)	3	147	127	active

Records listed so far whose gene name begins with N or n:
gene	siRNA no.	GFP, % of control	viability (ATP), % of control	activity call
Ndrg1 (GeneID 17988)	1	108	84.3	inactive
Ndrg1 (GeneID 17988)	2	46.4	32.8	inactive
Ndrg1 (GeneID 17988)	3	56.5	76.4	inactive
Ndrg1 (GeneID 17988)	4	40.9	54.8	inactive
Ndrg1 (GeneID 17988)	5	80.7	71.6	inactive
Ndrg1 (GeneID 17988)	6	78.8	51.5	inactive
